Experimental data published in patent publication US20250257069A1, “JAK INHIBITOR ANALOGS, FORMULATIONS, AND USES THEREOF” (THE REGENTS OF THE UNIVERSITY OF MICHIGAN, priority 2022, published 2025).

Key:
SET-2 cells = assay: Anti-proliferative assay in SET-2 cells (CellTiter 96 Aqueous); assay type: cell-based; conditions: Homo sapiens, 72 h, 3 days
Procedure: (§1) Cell Culture and anti-proliferative assay. Human cell lines HEL 92.1.7 and SET-2 were obtained from American Type Culture Collection (ATCC) and Leibniz Institute DSMZ-German Collection of Microorganisms and Cell Cultures GmbH, respectively. HEL and SET-2 cells were cultured in RMPI 1640 medium (Life Technologies Corporation, New York, USA) supplemented with 10% or 20% fetal bovine serum (FBS, Life Technologies Corporation, New York, USA), respectively. Cells were incubated at 37° C. in a humidified atmosphere of 5% CO2. Cells were seeded into 96-well culture plates at the density of approximately 8000 cells per well and treated with various concentrations of compounds for 3 days in final volumes of 200 μL. Upon end point, cells were treated using CellTiter 96 Aqueous Assay Reagents (Promega Corporation, Madison, USA) according to the provider's instruction. Briefly, MITS and PMS solution were thawed and mixed (20:1, v/v) before use and pipet appropriate amount of the mixed solution into each well of the 96 well assay plates. The plates were incubated for 1-4 hours at 37° C. in a humidified atmosphere of 5% CO2. The absorbance at 490 nm was recorded using CYTATION 5 imaging reader (BioTek, VT, USA). IC50 values were calculated using percentage of growth versus untreated control.

HEL 92.1.7 cells = assay: Anti-proliferative assay in HEL cells (CellTiter 96 Aqueous); assay type: cell-based; conditions: Homo sapiens, 72 h, 3 days
Procedure: as §1

`C[C@@H]1CCN(C(=O)CC#N)C[C@@H]1N(C)c1ncnc2[nH]ccc12` [Tofacitinib, reference compound] showed an IC50 (SET-2 cells) of roughly 7.31 pM and an IC50 (HEL 92.1.7 cells) of 3.69 µM.
